Results taken from the supplement of paper PMC10849652.
The list shows a part of the results.

Protein sequences, listed by entry. Tags and fused reporters are not part of them. Lines headed by an entry give the natural chain unless they say otherwise; changes in a name come on top.
UniProt Q9ULT8: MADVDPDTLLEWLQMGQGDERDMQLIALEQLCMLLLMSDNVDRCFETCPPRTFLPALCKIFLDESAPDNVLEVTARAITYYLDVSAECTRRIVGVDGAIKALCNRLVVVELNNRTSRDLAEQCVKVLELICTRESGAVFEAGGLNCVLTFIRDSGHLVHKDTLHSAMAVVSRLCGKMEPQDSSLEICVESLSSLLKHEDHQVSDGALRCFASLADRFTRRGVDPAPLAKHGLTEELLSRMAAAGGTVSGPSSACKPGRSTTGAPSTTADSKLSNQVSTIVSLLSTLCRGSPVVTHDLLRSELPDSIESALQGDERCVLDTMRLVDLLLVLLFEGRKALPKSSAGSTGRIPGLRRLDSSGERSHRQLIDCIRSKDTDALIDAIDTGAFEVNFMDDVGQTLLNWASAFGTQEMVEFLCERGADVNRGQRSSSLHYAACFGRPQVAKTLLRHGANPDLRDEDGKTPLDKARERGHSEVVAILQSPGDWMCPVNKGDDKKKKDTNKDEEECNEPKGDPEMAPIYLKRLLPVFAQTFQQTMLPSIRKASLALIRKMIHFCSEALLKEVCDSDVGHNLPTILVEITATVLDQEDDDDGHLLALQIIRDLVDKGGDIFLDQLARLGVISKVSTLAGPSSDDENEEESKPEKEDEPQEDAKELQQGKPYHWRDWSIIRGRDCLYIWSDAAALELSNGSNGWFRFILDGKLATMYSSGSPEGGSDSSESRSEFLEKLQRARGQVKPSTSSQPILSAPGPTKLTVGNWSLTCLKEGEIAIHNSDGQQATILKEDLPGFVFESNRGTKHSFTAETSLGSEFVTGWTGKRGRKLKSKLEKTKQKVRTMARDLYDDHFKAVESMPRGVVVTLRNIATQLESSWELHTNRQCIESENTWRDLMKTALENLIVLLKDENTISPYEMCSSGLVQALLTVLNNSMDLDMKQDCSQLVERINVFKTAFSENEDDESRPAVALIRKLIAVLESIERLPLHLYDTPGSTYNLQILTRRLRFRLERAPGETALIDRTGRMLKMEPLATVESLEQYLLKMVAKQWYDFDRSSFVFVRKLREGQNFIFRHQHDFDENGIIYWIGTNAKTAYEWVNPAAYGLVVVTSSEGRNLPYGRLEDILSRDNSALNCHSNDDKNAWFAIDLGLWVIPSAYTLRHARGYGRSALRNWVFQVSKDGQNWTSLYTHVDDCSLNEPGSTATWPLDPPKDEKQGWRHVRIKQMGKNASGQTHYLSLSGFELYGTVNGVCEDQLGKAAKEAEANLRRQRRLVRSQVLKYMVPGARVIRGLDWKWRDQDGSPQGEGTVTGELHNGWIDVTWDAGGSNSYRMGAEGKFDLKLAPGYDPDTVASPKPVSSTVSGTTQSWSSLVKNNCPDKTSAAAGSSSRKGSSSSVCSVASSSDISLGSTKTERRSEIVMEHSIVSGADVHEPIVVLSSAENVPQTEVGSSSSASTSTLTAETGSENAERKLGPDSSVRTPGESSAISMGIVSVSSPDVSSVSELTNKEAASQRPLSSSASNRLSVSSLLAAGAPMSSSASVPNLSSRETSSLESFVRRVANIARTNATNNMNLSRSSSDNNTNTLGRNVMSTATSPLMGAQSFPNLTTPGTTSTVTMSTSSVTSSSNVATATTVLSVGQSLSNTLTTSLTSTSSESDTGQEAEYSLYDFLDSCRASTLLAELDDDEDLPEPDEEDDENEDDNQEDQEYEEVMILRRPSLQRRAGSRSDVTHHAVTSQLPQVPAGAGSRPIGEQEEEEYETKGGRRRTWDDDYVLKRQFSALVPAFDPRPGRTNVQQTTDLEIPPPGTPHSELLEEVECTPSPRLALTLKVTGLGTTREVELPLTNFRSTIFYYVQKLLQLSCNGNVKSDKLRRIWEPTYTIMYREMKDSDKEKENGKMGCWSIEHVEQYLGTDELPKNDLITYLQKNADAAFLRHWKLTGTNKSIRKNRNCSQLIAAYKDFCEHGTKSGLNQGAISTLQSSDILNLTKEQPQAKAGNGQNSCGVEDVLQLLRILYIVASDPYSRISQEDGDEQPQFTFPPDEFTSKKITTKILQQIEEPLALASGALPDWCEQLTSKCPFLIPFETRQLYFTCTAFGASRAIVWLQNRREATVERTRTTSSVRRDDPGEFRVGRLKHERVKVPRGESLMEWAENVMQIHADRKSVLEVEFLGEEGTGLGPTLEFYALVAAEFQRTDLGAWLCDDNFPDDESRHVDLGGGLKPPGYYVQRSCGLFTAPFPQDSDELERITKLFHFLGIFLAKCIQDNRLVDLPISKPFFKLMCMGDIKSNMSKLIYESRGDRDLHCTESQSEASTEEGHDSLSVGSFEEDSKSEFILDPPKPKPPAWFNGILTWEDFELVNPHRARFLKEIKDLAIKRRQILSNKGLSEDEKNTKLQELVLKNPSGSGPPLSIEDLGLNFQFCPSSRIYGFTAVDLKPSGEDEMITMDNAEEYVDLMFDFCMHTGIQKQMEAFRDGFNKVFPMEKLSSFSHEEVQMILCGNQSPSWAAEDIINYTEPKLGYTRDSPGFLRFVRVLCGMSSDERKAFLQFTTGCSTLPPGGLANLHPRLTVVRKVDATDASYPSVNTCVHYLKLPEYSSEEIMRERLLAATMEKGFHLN
UniProt P52272: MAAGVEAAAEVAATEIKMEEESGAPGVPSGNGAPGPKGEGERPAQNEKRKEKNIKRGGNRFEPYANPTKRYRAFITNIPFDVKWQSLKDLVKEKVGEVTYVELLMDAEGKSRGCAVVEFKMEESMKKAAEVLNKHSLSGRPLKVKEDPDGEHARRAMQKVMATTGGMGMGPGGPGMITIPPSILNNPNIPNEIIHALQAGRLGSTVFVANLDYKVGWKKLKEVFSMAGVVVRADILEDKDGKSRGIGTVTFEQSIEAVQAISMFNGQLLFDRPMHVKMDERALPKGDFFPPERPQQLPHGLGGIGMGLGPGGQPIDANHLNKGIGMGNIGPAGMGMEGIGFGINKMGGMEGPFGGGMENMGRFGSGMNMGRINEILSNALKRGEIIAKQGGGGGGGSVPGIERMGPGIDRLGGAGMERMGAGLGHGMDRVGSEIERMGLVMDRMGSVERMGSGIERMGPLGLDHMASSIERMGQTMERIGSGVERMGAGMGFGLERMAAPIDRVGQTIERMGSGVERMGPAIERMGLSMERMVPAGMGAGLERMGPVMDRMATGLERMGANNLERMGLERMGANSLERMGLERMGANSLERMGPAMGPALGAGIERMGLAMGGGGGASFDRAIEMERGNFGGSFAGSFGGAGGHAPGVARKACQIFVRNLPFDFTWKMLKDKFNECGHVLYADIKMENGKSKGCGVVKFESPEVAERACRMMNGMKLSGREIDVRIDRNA
UniProt Q9NWT6: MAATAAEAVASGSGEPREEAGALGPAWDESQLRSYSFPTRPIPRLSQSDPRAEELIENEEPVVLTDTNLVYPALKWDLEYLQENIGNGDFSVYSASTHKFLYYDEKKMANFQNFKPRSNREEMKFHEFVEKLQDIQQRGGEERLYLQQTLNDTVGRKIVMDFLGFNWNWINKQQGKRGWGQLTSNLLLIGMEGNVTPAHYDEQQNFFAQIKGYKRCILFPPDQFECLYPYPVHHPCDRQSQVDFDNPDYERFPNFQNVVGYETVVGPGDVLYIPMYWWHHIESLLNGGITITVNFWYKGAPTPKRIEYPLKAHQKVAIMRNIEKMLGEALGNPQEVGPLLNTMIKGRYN

Experiments:
Test in all cases: log2 fold change, soluble protein after heating vs DMSO (PISA); higher = thermal stabilisation; K562 lysate, 10 uM; active = over 0.2 and 3.5 SD of the protein, either way, in both replicates (recomputed)
[1] = compound: C1=CC=C(C=C1)[C@H](COC2=CC3=C(C=C2)NC(=O)N3)NC(=O)C4=CC=CN(C4=O)CC5=CC(=C(C=C5)F)F
How it was run: (§1)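 Following dounce homogenisation of K562 pellets in PBS pH 7.4 with 1 mM MgCl2, crude extract at 1 mg/mL protein was incubated for 30 min with 10 μM compound. Aliquots were then heated for 3 min over 48°C-58°C and pooled, NP-40 was added to 0.5% at 4°C, and soluble protein was recovered as the supernatant at 21,000xg for 90 min. Channel-sum-equalised TMTpro 16plex LC-MS/MS quantified this protein. Each value, from duplicates, is a log-two fold change in thermal stability relative to solvent controls.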

[2] = compound: CC1=C(SC2=C1C(=N[C@H](C3=NN=C(N32)C)CC(=O)N)C4=CC=C(C=C4)Cl)C
How it was run: as §1

[3] = compound: CC1=C2C(=CC=C1)N=C(N(C2=O)C3=CC=CC=C3C)CN4C=NC5=C(N=CN=C54)N
How it was run: as §1

[4] = compound: Cc1sc2c(c1C)C(c1ccc(Cl)cc1)=N[C@@H](CC(=O)OC(C)(C)C)c1nnc(C)n1-2
How it was run: as §1

[5] = compound: c1ccc([C@@H]2C[C@H]2NC2CCNCC2)cc1
How it was run: as §1

Measured: log2 fold change

HECTD1 (UniProt Q9ULT8)
inactive: [1] -0.008 | [2] 0 | [3] -0.029 | [4] -0.002 | [5] -0.012

HIST2H2BF isoform 2 (UniProt Q5QNW6)
inactive: [1] -0.027 | [2] 0.015 | [3] -0.041 | [4] 0.122 | [5] 0.068

HECTD4 (UniProt J3KPF0)
inactive: [1] -0.013 | [2] 0.023 | [3] 0.068 | [4] -0.03 | [5] 0.043

HNRNPM (UniProt P52272)
inactive: [1] -0.099 | [2] 0.034 | [3] 0.041 | [4] -0.025 | [5] 0.014

HIF1AN (UniProt Q9NWT6)
inactive: [1] 0.044 | [2] 0.017 | [3] -0.028 | [4] 0.003 | [5] -0.015
